{"sequences": {"note": "Chains of the proteins cited; added tags and fusions are not shown.", "UniProt Q13111": "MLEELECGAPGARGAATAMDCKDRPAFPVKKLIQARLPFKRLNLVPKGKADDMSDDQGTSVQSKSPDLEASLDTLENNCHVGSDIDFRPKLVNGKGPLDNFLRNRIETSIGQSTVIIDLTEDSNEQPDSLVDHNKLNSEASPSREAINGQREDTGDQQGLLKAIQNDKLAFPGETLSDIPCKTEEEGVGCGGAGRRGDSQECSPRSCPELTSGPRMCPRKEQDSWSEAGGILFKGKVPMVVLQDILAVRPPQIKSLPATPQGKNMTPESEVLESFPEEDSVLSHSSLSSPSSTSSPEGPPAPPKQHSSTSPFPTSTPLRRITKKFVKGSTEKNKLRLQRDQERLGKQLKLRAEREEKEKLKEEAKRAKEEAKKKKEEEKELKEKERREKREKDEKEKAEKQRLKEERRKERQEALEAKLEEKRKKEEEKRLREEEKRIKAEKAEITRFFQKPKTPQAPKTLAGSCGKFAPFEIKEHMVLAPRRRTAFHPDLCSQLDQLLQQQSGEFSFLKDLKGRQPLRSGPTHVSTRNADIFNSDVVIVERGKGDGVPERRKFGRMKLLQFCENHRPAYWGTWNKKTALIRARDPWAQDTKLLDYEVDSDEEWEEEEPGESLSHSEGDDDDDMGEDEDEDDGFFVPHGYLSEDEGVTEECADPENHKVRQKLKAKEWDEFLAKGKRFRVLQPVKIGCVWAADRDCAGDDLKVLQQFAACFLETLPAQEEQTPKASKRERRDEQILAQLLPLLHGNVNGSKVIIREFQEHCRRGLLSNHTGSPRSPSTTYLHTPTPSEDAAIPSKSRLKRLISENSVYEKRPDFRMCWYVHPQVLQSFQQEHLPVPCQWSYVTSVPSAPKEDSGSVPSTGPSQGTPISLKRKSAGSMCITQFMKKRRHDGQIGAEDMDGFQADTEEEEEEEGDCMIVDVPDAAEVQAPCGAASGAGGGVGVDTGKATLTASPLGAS"}, "source": "paper PMC12724330", "molecular_target": "Chromatin assembly factor 1 subunit A (CHAF1A) (human (endogenous in J-Lat 10.6)) (UniProt Q13111)", "experiment": "affinity purification with mass spectrometry; J-Lat 10.6 cells, TNF-α activation; lysates immunoprecipitated with anti-CHAF1A antibody, IgG antibody as control; proteomic profiling of endogenous CHAF1A complexes", "note": "These are yes or no findings as the source states them, for the method shown. In cells and extracts the contact can be indirect. These calls come from enrichment with a bait or labelling near it, and not all partners need be listed.", "data": [{"binder": "O-GlcNAc transferase (OGT) (enzyme, UniProt O15294 1-1046) MASSVGNVADSTEPTKRMLSFQGLAELAHREYQAGDFEAAERHCMQLWRQEPDNTGVLLLLSSIHFQCRRLDRSAHFSTLAIKQNPLLAEAYSNLGNVYKERGQLQEAIEHYRHALRLKPDFIDGYINLAAALVAAGDMEGAVQAYVSALQYNPDLYCVRSDLGNLLKALGRLEEAKACYLKAIETQPNFAVAWSNLGCVFNAQGEIWLAIHHFEKAVTLDPNFLDAYINLGNVLKEARIFDRAVAAYLRALSLSPNHAVVHGNLACVYYEQGLIDLAIDTYRRAIELQPHFPDAYCNLANALKEKGSVAEAEDCYNTALRLCPTHADSLNNLANIKREQGNIEEAVRLYRKALEVFPEFAAAHSNLASVLQQQGKLQEALMHYKEAIRISPTFADAYSNMGNTLKEMQDVQGALQCYTRAIQINPAFADAHSNLASIHKDSGNIPEAIASYRTALKLKPDFPDAYCNLAHCLQIVCDWTDYDERMKKLVSIVADQLEKNRLPSVHPHHSMLYPLSHGFRKAIAERHGNLCLDKINVLHKPPYEHPKDLKLSDGRLRVGYVSSDFGNHPTSHLMQSIPGMHNPDKFEVFCYALSPDDGTNFRVKVMAEANHFIDLSQIPCNGKAADRIHQDGIHILVNMNGYTKGARNELFALRPAPIQAMWLGYPGTSGALFMDYIITDQETSPAEVAEQYSEKLAYMPHTFFIGDHANMFPHLKKKAVIDFKSNGHIYDNRIVLNGIDLKAFLDSLPDVKIVKMKCPDGGDNADSSNTALNMPVIPMNTIAEAVIEMINRGQIQITINGFSISNGLATTQINNKAATGEEVPRTIIVTTRSQYGLPEDAIVYCNFNQLYKIDPSTLQMWANILKRVPNSVLWLLRFPAVGEPNIQQYAQNMGLPQNRIIFSPVAPKEEHVRRGQLADVCLDTPLCNGHTTGMDVLWAGTPMVTMPGETLASRVAASQLTCLGCLELIAKNRQEYEDIAVKLGTDLEYLKKVRGKVWKQRISSPLFNTKQYTMELERLYLQMWEHYAAGNKPDHMIKPVEVTESA", "values": [{"measurement": "binding", "value": "binds"}]}]}
